# Results are given in words; binding and its absence hold for the method and conditions named. Some binding calls cover weakened binding; strength is not graded here.
# Chains of the proteins cited; added tags and fusions are not shown. Lines headed by an entry give the natural chain unless they say otherwise; changes in a name come on top.
# UniProt Q92993: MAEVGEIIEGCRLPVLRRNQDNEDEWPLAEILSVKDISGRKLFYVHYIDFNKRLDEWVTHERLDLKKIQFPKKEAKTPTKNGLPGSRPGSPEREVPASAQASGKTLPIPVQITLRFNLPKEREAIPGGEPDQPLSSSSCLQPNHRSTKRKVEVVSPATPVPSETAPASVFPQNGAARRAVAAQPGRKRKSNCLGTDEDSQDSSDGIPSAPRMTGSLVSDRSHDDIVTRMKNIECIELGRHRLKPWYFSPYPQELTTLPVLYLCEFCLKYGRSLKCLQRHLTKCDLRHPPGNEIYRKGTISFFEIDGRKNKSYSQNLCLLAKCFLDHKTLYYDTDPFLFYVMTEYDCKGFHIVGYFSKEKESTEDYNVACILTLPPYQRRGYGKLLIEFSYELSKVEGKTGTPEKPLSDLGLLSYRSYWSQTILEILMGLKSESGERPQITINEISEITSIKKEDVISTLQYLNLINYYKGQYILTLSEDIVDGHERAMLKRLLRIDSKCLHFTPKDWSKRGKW
# UniProt Q9Y6K9: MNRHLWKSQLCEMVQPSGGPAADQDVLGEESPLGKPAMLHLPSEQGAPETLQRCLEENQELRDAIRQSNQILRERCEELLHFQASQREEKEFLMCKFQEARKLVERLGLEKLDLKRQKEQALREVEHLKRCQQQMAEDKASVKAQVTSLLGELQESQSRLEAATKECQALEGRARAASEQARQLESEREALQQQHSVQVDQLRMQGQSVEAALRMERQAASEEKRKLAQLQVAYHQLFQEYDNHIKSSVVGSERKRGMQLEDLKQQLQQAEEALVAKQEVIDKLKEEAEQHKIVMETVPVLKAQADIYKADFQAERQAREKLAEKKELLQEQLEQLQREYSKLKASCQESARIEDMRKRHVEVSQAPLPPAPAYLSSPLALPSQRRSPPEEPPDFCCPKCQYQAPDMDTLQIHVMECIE
# Biological target: TIP60 (histone acetyltransferase) (UniProt Q92993)
# Assay: immunoprecipitation from HeLa cells and yeast two-hybrid tests
substance,measurement,value
"RAP-2 (RIP-associated protein-2), full-length (from UniProt Q9Y6K9 1-419)",binding,binds
